In publication PMC9958104, “Arabidopsis histone H3 lysine 9 methyltransferases KYP/SUVH5/6 are involved in leaf development by interacting with AS1-AS2 to repress KNAT1 and KNAT2” (Communications Biology, 2023):

Legend:
Assay in all cases: split reporter; BiFC (YN/YC halves of YFP) in Agrobacterium GV3101-infiltrated N. benthamiana leaves; confocal microscopy; nucleus marked by NLS-mCherry
[1] = target: C-terminus of AS2, BiFC fusion (Arabidopsis thaliana)
[2] = target: N-terminus of AS1, BiFC fusion (Arabidopsis thaliana)
[3] = target: N-terminus of AS2, BiFC fusion (Arabidopsis thaliana)

binding [1]: no binding
binding [2]: binds
binding [3]: binds
B1: KRYPTONITE/SUPPRESSOR OF …ON 3-9 HOMOLOG 4 (KYP/SUVH4), full length, BiFC fusion (enzyme, UniProt Q8GZB6 1-624)
chain: MAGKRKRANAPDQTERRSSVRVQKVRQKALDEKARLVQERVKLLSDRKSEICVDDTELHEKEEENVDGSPKRRSPPKLTAMQKGKQKLSVSLNGKDVNLEPHLKVTKCLRLFNKQYLLCVQAKLSRPDLKGVTEMIKAKAILYPRKIIGDLPGIDVGHRFFSRAEMCAVGFHNHWLNGIDYMSMEYEKEYSNYKLPLAVSIVMSGQYEDDLDNADTVTYTGQGGHNLTGNKRQIKDQLLERGNLALKHCCEYNVPVRVTRGHNCKSSYTKRVYTYDGLYKVEKFWAQKGVSGFTVYKYRLKRLEGQPELTTDQVNFVAGRIPTSTSEIEGLVCEDISGGLEFKGIPATNRVDDSPVSPTSGFTYIKSLIIEPNVIIPKSSTGCNCRGSCTDSKKCACAKLNGGNFPYVDLNDGRLIESRDVVFECGPHCGCGPKCVNRTSQKRLRFNLEVFRSAKKGWAVRSWEYIPAGSPVCEYIGVVRRTADVDTISDNEYIFEIDCQQTMQGLGGRQRRLRDVAVPMNNGVSQSSEDENAPEFCIDAGSTGNFARFINHSCEPNLFVQCVLSSHQDIRLARVVLFAADNISPMQELTYDYGYALDSVHGPDGKVKQLACYCGALNCRKRLY

These are yes or no findings as the source states them, for the method shown. Binding seen in cells or lysates may run through a third protein. For part of these data: Binding calls can cover weak binding; strength is not graded here. Where a sequence is shown, tags or fusion partners need not be part of it.
